These are yes or no findings as the source states them, for the method shown. Some results given as binding are weak or reduced against the parent protein; the word gives no strength. Where a sequence is shown, tags or fusion partners need not be part of it. Each block holds one binder with its values, some of them ahead of it.
Target: T1, human GPC3 recombinant protein (human, UniProt P51654 25-559)
T1 construct: also called huGPC3; Human GPC3 protein
Assay: SPR epitope binning on human GPC3
Protocol: The 19 VHH-His tagged domains were then evaluated for epitope-binding site. All VHHs were injected one at a time to evaluate the epitope binding site for each VHH domain. […] Human GPC3 was injected followed by an off rate wash for 4 minutes. No binding is observed if the VHH binds at the same epitope as VHH2, while a second binding event is observed if the VHH binds at a different epitope. All VHHs were binned into two groups based on the epitopes. VHH2 and VHH3 bind the same epitope and all other VHs bind the second epitope (FIG. 19).

Chains of the proteins cited; added tags and fusions are not shown. Lines headed by an entry give the natural chain unless they say otherwise; changes in a name come on top.
UniProt P51654: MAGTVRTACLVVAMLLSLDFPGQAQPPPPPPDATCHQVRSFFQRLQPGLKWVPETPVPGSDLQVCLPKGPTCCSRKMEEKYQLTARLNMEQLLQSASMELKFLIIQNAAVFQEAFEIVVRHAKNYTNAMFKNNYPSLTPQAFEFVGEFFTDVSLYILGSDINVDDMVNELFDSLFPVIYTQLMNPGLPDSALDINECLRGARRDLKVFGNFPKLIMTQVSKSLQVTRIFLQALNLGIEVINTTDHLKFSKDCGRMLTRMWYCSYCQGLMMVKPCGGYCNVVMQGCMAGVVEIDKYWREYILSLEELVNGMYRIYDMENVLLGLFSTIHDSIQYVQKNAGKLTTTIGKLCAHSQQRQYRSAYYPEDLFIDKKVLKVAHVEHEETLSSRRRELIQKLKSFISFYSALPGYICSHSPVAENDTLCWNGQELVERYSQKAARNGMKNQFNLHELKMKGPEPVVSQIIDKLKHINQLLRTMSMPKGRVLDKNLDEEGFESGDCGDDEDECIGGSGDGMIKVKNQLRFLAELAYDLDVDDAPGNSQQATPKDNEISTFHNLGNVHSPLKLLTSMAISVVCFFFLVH

binding: binds
B1: anti-GPC3 VHH-His tagged domain VHH3 (VHH)
VHH: EVQLVESGGGVVQPGRSLRLSCAASGFTFSNYLMQWVRQAPGKGLVWLSNINSDGSSTDYADSVKGRFTISRDNAKNTLYLQMNSLRAEDTAVYYCRVGAFDYWGQGTLVTVSS
notes: Produced from a mammalian expression vector as a His fusion; not shown: His tag

binding: binds
B2: anti-GPC3 VHH-His tagged domain VHH6 (VHH)
VHH: QVQLVESGGGLVQPGGSLRLSCAASGFIFSSYAMSWVRQAPGKEPEWVSSISGGGSSTYYADSLEGRFTISRDNSKNTLYLQMNSLRAEDTAVYYCSKDPRFGEPPFDYWGQGTTVTVSS
notes: as for B1

From patent publication US20260191905A1 (MODERNATX, published 2026)
